Article PMC12593645
These are yes or no findings as the source states them, for the method shown. Binding seen in cells or lysates may run through a third protein. Some results given as binding are weak or reduced against the parent protein; the word gives no strength.

By UniProt entry, the sequences of proteins in these tests, tags left out.
UniProt P35222: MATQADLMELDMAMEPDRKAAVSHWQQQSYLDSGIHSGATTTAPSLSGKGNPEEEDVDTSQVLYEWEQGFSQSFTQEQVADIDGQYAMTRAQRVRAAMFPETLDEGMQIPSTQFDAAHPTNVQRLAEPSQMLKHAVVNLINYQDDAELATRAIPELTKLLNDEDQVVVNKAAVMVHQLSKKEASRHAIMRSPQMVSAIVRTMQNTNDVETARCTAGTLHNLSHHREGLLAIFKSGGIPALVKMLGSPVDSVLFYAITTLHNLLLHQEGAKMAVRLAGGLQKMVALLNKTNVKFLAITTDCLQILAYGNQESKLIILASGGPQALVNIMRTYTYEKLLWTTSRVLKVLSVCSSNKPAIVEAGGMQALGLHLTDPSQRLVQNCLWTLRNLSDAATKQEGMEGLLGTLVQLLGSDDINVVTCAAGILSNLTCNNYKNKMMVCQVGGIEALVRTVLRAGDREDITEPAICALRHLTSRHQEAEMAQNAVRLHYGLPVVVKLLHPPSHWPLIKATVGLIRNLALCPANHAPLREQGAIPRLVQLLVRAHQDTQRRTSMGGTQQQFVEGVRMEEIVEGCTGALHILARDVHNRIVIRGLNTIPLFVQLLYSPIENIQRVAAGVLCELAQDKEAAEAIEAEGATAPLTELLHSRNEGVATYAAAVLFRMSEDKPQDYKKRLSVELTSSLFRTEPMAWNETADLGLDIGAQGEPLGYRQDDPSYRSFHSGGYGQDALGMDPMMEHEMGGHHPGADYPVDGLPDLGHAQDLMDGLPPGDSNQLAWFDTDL

Biological target: T1, alpha-B crystallin (CRYAB) (human (endogenous in BMSCs)) (UniProt P02511)
T1 sequence: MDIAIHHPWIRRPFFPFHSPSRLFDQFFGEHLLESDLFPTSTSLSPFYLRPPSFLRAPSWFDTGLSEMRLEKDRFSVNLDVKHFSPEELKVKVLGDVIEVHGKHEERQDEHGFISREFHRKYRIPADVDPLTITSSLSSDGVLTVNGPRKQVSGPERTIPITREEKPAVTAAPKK
Test: co-IP; lysates of BMSCs stimulated with PLGA or P20F scaffolds for 24 h; anti-CRYAB antibody overnight at 4 °C, Pierce Magnetic IP/Co-IP Kit; blots with anti-CRYAB and anti-β-catenin

β-catenin (from UniProt P35222 1-781)
binding: binds
